Results from PubChem BioAssay AID256 (DTP/NCI, 2004).
The list is a part of this screen's results and no random one: it is rich in T/C values a quarter to a half above the control, in often repeated tests (any T/C) and in doses without a T/C. Other doses and runs of a compound stand elsewhere. T/C: endpoint of the treated group in % of that of the vehicle group. Some doses have a count of surviving animals in place of a T/C: the source files T/C as zero there, which appears to mark a toxic dose or a test without result, not a measured value. Some doses without a T/C left all or most animals alive at the check, yet need not have been tolerated: survival well below the control is almost never listed, so the zero probably covers shortened survival too. Counts of survivors are from the toxicity check (mostly the fifth day) where no day follows; animals may have died later. Schedule codes are those of the source, taken here to give the interval after Q, in days (D) or hours (H), and the number of doses after X. Some entries hold several experiments; the values are given in rising order. For survival time, this PubChem deposit counts one and a half times the control or more as active, and values a quarter to a half above the control carry no call in these data; other NCI protocols may use other cut-offs. Additions like (4×) stand for listed records that agree. Some T/C values are followed by the survivors on the day toxicity was checked, most often the fifth; without a count, all were alive then.

Test system: CD2F1 mice, L1210 leukemia ip, survival T/C
Assay: NCI In Vivo Anticancer Drug Screen. Data for tumor model L1210 Leukemia (intraperitoneal) in CD2F1 (CDF1) mice
Settings: higher T/C = longer survival
Procedure, shortened: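 Activity against a transplanted murine tumor was judged by comparing the compound group with a vehicle group. The outcome in the treated animals was divided by that in the controls.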

[1] = T/C endpoint: mean survival time, dose: 200.0 mg/kg/injection, schedule: Q04DX003 (ip), vehicle: saline with Tween-80
[2] = T/C endpoint: mean survival time, dose: 400.0 mg/kg/injection, schedule: Q04DX003 (ip), vehicle: saline with Tween-80
[3] = T/C endpoint: mean survival time, dose: 100.0 mg/kg/injection, schedule: Q04DX003 (ip), vehicle: saline
[4] = T/C endpoint: mean survival time, dose: 200.0 mg/kg/injection, schedule: Q01DX009 (ip), vehicle: saline with Tween-80
[5] = T/C endpoint: mean survival time, dose: 100.0 mg/kg/injection, schedule: Q01DX009 (ip), vehicle: saline with Tween-80
[6] = T/C endpoint: mean survival time, dose: 400.0 mg/kg/injection, schedule: Q01DX009 (ip), vehicle: saline with Tween-80
[7] = T/C endpoint: mean survival time, dose: 200.0 mg/kg/injection, schedule: Q01DX009 (ip), vehicle: saline
[8] = T/C endpoint: mean survival time, dose: 400.0 mg/kg/injection, schedule: Q04DX003 (ip), vehicle: saline
[9] = T/C endpoint: mean survival time, dose: 100.0 mg/kg/injection, schedule: Q01DX001 (ip), vehicle: saline with Tween-80

SMILES: CC12CCC(=O)C(I)(I)C1=CCCC2=O (centres undefined)
- survivor count (T/C endpoint: mean survival time, dose: 200.0 mg/kg/injection, schedule: Q01DX001 (ip), vehicle: saline with Tween-80): 6 of 6
- survivor count (T/C endpoint: mean survival time, dose: 400.0 mg/kg/injection, schedule: Q01DX001 (ip), vehicle: saline with Tween-80): 5 of 6

SMILES: Cc1cc(N2CCC(N3CCCC3)CC2)nc(/N=C(\N)Nc2ccc(Cl)c(Cl)c2)n1
- survivor count (T/C endpoint: mean survival time, dose: 100.0 mg/kg/injection, schedule: Q04DX003 (ip), vehicle: saline with Tween-80): 5 of 6
- survivor count [1]: 1 of 6
- survivor count [2]: 0 of 6

SMILES: CN(C)C=Nc1ccc(Cl)c(Cl)c1
- survivor count [3]: 4 of 6

SMILES: O=C1c2ccccc2C(=O)N1CNc1ccc(Cl)cn1
- survivor count [4]: 6 of 6

SMILES: CC(=O)Nc1ccc(OCCOC(=O)Nc2ccc(Cl)cc2C)cc1
- survivor count [5]: 3 of 3

SMILES: NC(=S)c1cccc(OCCOc2cccc3ccccc23)c1
- survivor count [5]: 6 of 6
- survivor count [4]: 2 of 6
- survivor count [6]: 0 of 6

SMILES: Cc1cccc(NC(=O)Nc2ccc(Oc3ccccc3Cl)c(S(=O)(=O)O)c2)c1
- survivor count [7]: 0 of 6
- survivor count [8]: 1 of 6

SMILES: COc1ccc(N=C=S)cc1N=C=S
- survivor count (T/C endpoint: mean survival time, dose: 100.0 mg/kg/injection, schedule: Q01DX001 (ip), vehicle: Klucel (hydroxypropylcellulose) (HPC)): 0 of 6
- survivor count (T/C endpoint: mean survival time, dose: 200.0 mg/kg/injection, schedule: Q01DX001 (ip), vehicle: Klucel (hydroxypropylcellulose) (HPC)): 0 of 6
- survivor count (T/C endpoint: mean survival time, dose: 400.0 mg/kg/injection, schedule: Q01DX001 (ip), vehicle: Klucel (hydroxypropylcellulose) (HPC)): 0 of 6

SMILES: CN(CCCCN(C)CCOS(C)(=O)=O)CCOS(C)(=O)=O
- T/C (T/C endpoint: mean survival time, dose: 1.7 mg/kg/injection, schedule: Q01DX009 (ip), vehicle: saline): 135 % of control
- T/C (T/C endpoint: mean survival time, dose: 2.6 mg/kg/injection, schedule: Q01DX009 (ip), vehicle: saline): 125 % of control
- T/C (T/C endpoint: mean survival time, dose: 5.5 mg/kg/injection, schedule: Q01DX001 (ip), vehicle: saline): 140 % of control
- survivor count (T/C endpoint: mean survival time, dose: 6.0 mg/kg/injection, schedule: Q01DX009 (ip), vehicle: saline): 6 of 6
- survivor count (T/C endpoint: mean survival time, dose: 50.0 mg/kg/injection, schedule: Q01DX001 (ip), vehicle: saline): 4 of 6

SMILES: N#CCC(N)=S
- survivor count [5]: 0 of 6
- survivor count [4]: 0 of 6
- survivor count [6]: 0 of 6

SMILES: NNC(=O)CCCCCCCCCCCCCCO
- survivor count [9]: 3 of 3

SMILES: CCCCc1ccc(N=C(N)N=C(N)N)cc1
- survivor count (T/C endpoint: mean survival time, dose: 75.0 mg/kg/injection, schedule: Q01DX001 (ip), vehicle: other): 3 of 6
- survivor count (T/C endpoint: mean survival time, dose: 150.0 mg/kg/injection, schedule: Q01DX001 (ip), vehicle: other): 0 of 6
- survivor count (T/C endpoint: mean survival time, dose: 300.0 mg/kg/injection, schedule: Q01DX001 (ip), vehicle: other): 0 of 6

SMILES: CN1CCCCCC1
- survivor count [2]: 0 of 6

SMILES: COc1cc2c(c(OC)c1O)-c1ccc(OC)c(=O)cc1[C@@H](NC(=O)C(F)(F)F)CC2
- T/C (T/C endpoint: median survival time, dose: 1.25 mg/kg/injection, schedule: Q01DX005 (ip), vehicle: Klucel (hydroxypropylcellulose) (HPC)): 137 % of control
- T/C (T/C endpoint: median survival time, dose: 1.8 mg/kg/injection, schedule: Q01DX005 (ip), vehicle: Klucel (hydroxypropylcellulose) (HPC)): 147 % of control
- T/C (T/C endpoint: median survival time, dose: 2.5 mg/kg/injection, schedule: Q01DX009 (ip), vehicle: Klucel (hydroxypropylcellulose) (HPC)): 131 % of control
- T/C (T/C endpoint: median survival time, dose: 5.0 mg/kg/injection, schedule: Q01DX005 (ip), vehicle: Klucel (hydroxypropylcellulose) (HPC)): 135 % of control
- T/C (T/C endpoint: median survival time, dose: 5.0 mg/kg/injection, schedule: Q01DX009 (ip), vehicle: Klucel (hydroxypropylcellulose) (HPC)): 131 % of control
- survivor count (T/C endpoint: median survival time, dose: 10.0 mg/kg/injection, schedule: Q01DX009 (ip), vehicle: Klucel (hydroxypropylcellulose) (HPC)): 4 of 6
- survivor count (T/C endpoint: median survival time, dose: 20.0 mg/kg/injection, schedule: Q01DX005 (ip), vehicle: Klucel (hydroxypropylcellulose) (HPC)): 3 of 6

SMILES: O=C(O)c1cc(C(=O)O)cc(S(=O)(=O)O)c1.[NH-]C1CCCCC1[NH-].[Pt+2]
- T/C (T/C endpoint: median survival time, dose: 12.5 mg/kg/injection, schedule: Q04DX003 (ip), vehicle: saline): 128 % of control [5 of 6 alive]
- T/C (T/C endpoint: median survival time, dose: 25.0 mg/kg/injection, schedule: Q04DX003 (ip), vehicle: saline): 128 % of control
- T/C (T/C endpoint: median survival time, dose: 100.0 mg/kg/injection, schedule: Q04DX003 (ip), vehicle: saline): 141 % of control [5 of 6 alive]
- survivor count (T/C endpoint: median survival time, dose: 200.0 mg/kg/injection, schedule: Q04DX003 (ip), vehicle: saline): 3 of 6 and 4 of 6

SMILES: CN(C)N=Nc1cccc(Cl)c1
- survivor count (T/C endpoint: mean survival time, dose: 400.0 mg/kg/injection, schedule: Q01DX009 (ip), vehicle: Klucel (hydroxypropylcellulose) (HPC)): 0 of 6

SMILES: CCCCC(CC)CNCC(CC)CCCC (centres undefined)
- survivor count [1]: 0 of 6

SMILES: COc1cc(N2C(N)=NC(N)=NC2(C)C)cc(OC)c1OC
- survivor count [3]: 2 of 6
- survivor count (T/C endpoint: mean survival time, dose: 200.0 mg/kg/injection, schedule: Q04DX003 (ip), vehicle: saline): 0 of 6
- survivor count [8]: 0 of 6

SMILES: N=C(N)N(CCS)CC(=O)O
- survivor count [9]: 3 of 3

SMILES: CCOC(=O)c1cnc(N(C)C)nc1SC(=N)N
- survivor count [7]: 1 of 6
- survivor count [8]: 0 of 6

SMILES: CC(C)NC(=O)OCc1c(COC(=O)NC(C)C)c(-c2ccc(Cl)c(Cl)c2)n2c1CCC2
- T/C (T/C endpoint: mean survival time, dose: 25.0 mg/kg/injection, schedule: Q01DX009 (ip), vehicle: distilled water + Tween-80): 130 % of control
- T/C (T/C endpoint: mean survival time, dose: 50.0 mg/kg/injection, schedule: Q01DX009 (ip), vehicle: distilled water + Tween-80): 126 % of control [5 of 6 alive]
- T/C (T/C endpoint: mean survival time, dose: 50.0 mg/kg/injection, schedule: Q01DX009 (ip), vehicle: saline with Tween-80): 132 % of control
- T/C (T/C endpoint: mean survival time, dose: 100.0 mg/kg/injection, schedule: Q01DX009 (ip), vehicle: distilled water + Tween-80): 134 % of control
- T/C (T/C endpoint: mean survival time, dose: 200.0 mg/kg/injection, schedule: Q01DX009 (ip), vehicle: distilled water + Tween-80): 129 % of control [5 of 6 alive]
- survivor count [4]: 6 of 6
- T/C (T/C endpoint: median survival time, dose: 400.0 mg/kg/injection, schedule: Q01DX005 (ip), vehicle: saline with Tween-80): 140 % of control

SMILES: Clc1ncnc2nc[nH]c12
- T/C (T/C endpoint: mean survival time, dose: 7.5 mg/kg/injection, schedule: Q01DX009 (ip), vehicle: saline): 94, 98, 100, 106 % of control
- T/C (T/C endpoint: mean survival time, dose: 15.0 mg/kg/injection, schedule: Q01DX009 (ip), vehicle: saline): 95, 100 (2×), 101 % of control
- T/C (T/C endpoint: mean survival time, dose: 30.0 mg/kg/injection, schedule: Q01DX009 (ip), vehicle: saline): 100, 106, 109, 112 % of control
- T/C (T/C endpoint: mean survival time, dose: 60.0 mg/kg/injection, schedule: Q01DX009 (ip), vehicle: saline): 111, 117, 118, 123 % of control

SMILES: CC[n+]1ccc(Cc2ccc([N+](=O)[O-])cc2)cc1
- survivor count (T/C endpoint: mean survival time, dose: 200.0 mg/kg/injection, schedule: Q04DX003 (ip), vehicle: Klucel (hydroxypropylcellulose) (HPC)): 3 of 6
- survivor count (T/C endpoint: mean survival time, dose: 400.0 mg/kg/injection, schedule: Q04DX003 (ip), vehicle: Klucel (hydroxypropylcellulose) (HPC)): 0 of 6

SMILES: C[n+]1ccc(Nc2ccc(NC(=O)c3ccc(Nc4cc[n+](C)c5ccc(N)cc45)cc3N)cc2)cc1
- T/C (T/C endpoint: mean survival time, dose: 1.0 mg/kg/injection, schedule: Q01DX009 (ip), vehicle: water): 130 % of control
- survivor count (T/C endpoint: mean survival time, dose: 8.0 mg/kg/injection, schedule: Q01DX009 (ip), vehicle: water): 6 of 10
- survivor count (T/C endpoint: mean survival time, dose: 16.0 mg/kg/injection, schedule: Q01DX009 (ip), vehicle: water): 2 of 10
- survivor count (T/C endpoint: mean survival time, dose: 32.0 mg/kg/injection, schedule: Q01DX009 (ip), vehicle: water): 0 of 10

SMILES: CCN(CC)Cc1cc(O)ccc1NCCCNc1ccnc2cc(Cl)ccc12
- survivor count [1]: 1 of 6
- survivor count [2]: 0 of 6

SMILES: CCC1(O)C(=O)OCc2c1cc1n(c2=O)Cc2cc3cc(C)ccc3nc2-1 (centres undefined)
- T/C (T/C endpoint: median survival time, dose: 80.0 mg/kg/injection, schedule: Q04DX002 (ip), vehicle: saline with Tween-80): 147 % of control

SMILES: COC1=CC(=O)C(C2CC(=O)c3c(O)cc(O)cc3O2)=CC1=O (centres undefined)
- survivor count [4]: 2 of 6
- survivor count [6]: 1 of 6

SMILES: C/C=C\c1ccc(OCCOC(=O)Nc2ccc(C)c([N+](=O)[O-])c2)c(OC)c1
- survivor count [5]: 3 of 3

SMILES: CNC(C(=O)O)c1ccccc1 (centres undefined)
- survivor count [4]: 6 of 6
- survivor count [6]: 1 of 6

SMILES: CCOC(=O)c1c(C)nc(C)c(C(=O)OCC)c1-c1ccc(N(C)C)cc1
- survivor count [2]: 5 of 6
